Source: PubChem BioAssay AID504834 (National Center for Advancing Translational Sciences (NCATS), 2011)
Screen size: about 320,000 compounds; about 22,000 (6.9%) were called active. The inconclusive results got no clear call from the source; some entries with a clear call stand among them for comparison. Calls follow the shape of the dose curve; as a rule, active = well fitted inhibition curve with a large enough effect; inconclusive = small, poorly fitted or top-dose-only effect, or another doubt; inactive = no such curve, though single readings can be large or run the other way. A potency beside an inconclusive call is a rough fit, not a confirmed value.

Assay: Primary qHTS for delayed death inhibitors of the malarial parasite plastid, 96 hour incubation
Settings: P. falciparum luciferase reporter growth; series mostly up to 28.7 µM
Procedure, shortened: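 Readout is luminescence from an integrated firefly luciferase in P. falciparum. Red cells, 2% hematocrit and 0.05% parasitemia final, were cultured with compound through two parasite generations (96 hours) at 37 C, 5% CO2.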
Potency is read from the fitted curve at half-maximal effect.

Compound	Potency
Cc1ccc(Nc2c3c(nc4ccccc24)CCC3)cc1	inconclusive: 8.28 µM [inhibitor, partial curve, poor fit]
COc1ccccc1CCNC(=O)CSc1nc(-c2ccco2)cc(C(F)(F)F)n1	inconclusive: 11.7 µM [inhibitor, single point]
COc1cc(CN2CCN(C(c3ccccc3)c3ccccc3)CC2)cc(OC)c1OC	active: 4.65 µM
CCn1c(SCC(=O)Nc2cccc(C)c2)nc2c(c1=O)SC(C)C2 (stereo unspecified)	active: 13.1 µM
CCNC(=O)COC(=O)c1cc(S(=O)(=O)N2CCCc3ccccc32)ccc1Cl	inactive
C/C(Cn1cnc([N+](=O)[O-])n1)=N/NC(=O)COc1c(Cl)cc(Cl)cc1Cl	inactive
O=C(CNC(=O)c1cccc(S(=O)(=O)N2CCc3ccccc32)c1)Nc1ccc(F)c(F)c1F	inconclusive: 18.5 µM [inhibitor, single point]
O=C(NCc1ccc2c(c1)OCO2)c1cc(F)c(F)cc1Cl	inconclusive: 10.4 µM [inhibitor, partial curve, poor fit]
O=C1C=C(c2ccc(Br)c3ccccc23)C[C@@H](c2ccc3c(c2)OCO3)C1	inconclusive: 16.5 µM [inhibitor, single point]
COCCn1c(SCC(=O)N2CCOCC2)nnc1-c1ccncc1	inconclusive: 3.7 µM [inhibitor, partial curve, poor fit]
COc1ccc(OC)c(-c2cc(C(=O)NCc3cccs3)no2)c1	inconclusive: 1.04 µM [inhibitor, partial curve, poor fit]
COc1cc(C)c(CNc2cc(C)cc(C)c2)cc1C	inconclusive: 18.5 µM [inhibitor, single point]
Cc1ccc2sc(N(CCN(C)C)C(=O)/C=C/c3cccs3)nc2c1C	inconclusive: 18.5 µM [inhibitor, single point]
COc1ccc(NC(=O)C(c2cc3c(cc2[N+](=O)[O-])OCO3)N(C)Cc2ccccc2)cc1 (stereo unspecified)	inconclusive: 13.1 µM [inhibitor, single point]
Cc1cc(S(=O)(=O)N2CCOCC2)c(C)s1	inconclusive: 10.4 µM [inhibitor, single point]
O=C(Cc1ncc(C(F)(F)F)cc1Cl)NC1CC1	inconclusive: 1.17 µM [inhibitor, partial curve]
Cc1ccc(-c2cc(C(=O)NCc3ccc4c(c3)OCO4)[nH]n2)c(O)c1C	active: 11.7 µM
CC(C)Cn1c(SCC(=O)N2CCCc3ccccc32)nc2ccccc2c1=O	inconclusive: 13.1 µM [inhibitor, single point]
O=c1ccc(-c2ccc(S(=O)(=O)NCc3cccc(Br)c3)s2)n[nH]1	inactive
Cc1[nH]c(=O)c(C(=O)/C=C/c2ccccc2F)c2c1CCCC2	active: 5.22 µM
O=C(c1ccc([N+](=O)[O-])cc1)N1CCN(C(=O)c2ccco2)CC1	inconclusive: 4.15 µM [inhibitor, single point]
CCOc1ccc(N2C(=O)NC(=O)/C(=C\c3ccc(N4CCCCC4)o3)C2=O)cc1	active: 13.1 µM
Nc1nc(Nc2cccc(F)c2)nc2ccccc12	inactive

Compound	Potency
CC1(C)CC(NNCCC#N)=CC(=[N+]2CCCC2)C1	inconclusive: 9.28 µM [inhibitor, single point]
O=C(Nc1cc(S(=O)(=O)N2CCOCC2)ccc1N1CCOCC1)c1ccc(S(=O)(=O)N2CCCCC2)cc1	inconclusive: 5.86 µM [inhibitor, partial curve, poor fit]
Cc1nc(Nc2ccccc2)sc1C	inconclusive: 18.5 µM [inhibitor, single point]
COc1cccc(NC(=S)NCCC(c2ccccc2)c2ccccc2)c1	inconclusive: 11.7 µM [inhibitor, single point]
CCn1c(SCC(=O)Nc2ccc(C)cc2)nnc1-c1cnccn1	inconclusive: 18.5 µM [inhibitor, single point]
c1ccc(-c2noc(-c3ccno3)n2)nc1	inactive
CC(C(=O)c1c[nH]c2ccccc12)N1CCc2ccccc2C1 (stereo unspecified)	active: 2.94 µM
Cc1c(Br)c(O)c(Br)c2sc(=O)oc12	inconclusive: 9.28 µM [inhibitor, single point]
O=C(O)c1cccc(NCc2cccnc2)c1	inactive
COc1cc(-c2noc(C)c2/C=C/c2ccc(N)cc2)cc(OC)c1OC	inconclusive: 16.5 µM [inhibitor, single point]
CC(=O)Nc1ccc(C(=O)NNC(=O)c2ccc(Cl)cc2)cc1	inactive
COc1ccc(N2C(=NC(=O)C3CCCCC3)SC3CS(=O)(=O)CC32)c(OC)c1 (stereo unspecified)	inconclusive: 18.5 µM [inhibitor, single point]
C/C(CC(=O)Nc1ccccc1Br)=N\NC(=O)C(=O)N1CCCC1	active: 10.4 µM
COc1cccc(NC(=O)CSc2nc3ccccc3c(=O)n2C)c1	inconclusive: 11.7 µM [inhibitor, partial curve]
CC(c1ccccc1)C1CC(=O)N(Cc2ccccc2)C1=O (stereo unspecified)	inactive
O=C(Cn1cc(C(=O)c2ccco2)c2ccccc21)NC1CC1	inactive
CCCCc1nc(NCCN)c(C#N)c2c1CSC(C)(C)C2	inconclusive: 9.28 µM [inhibitor, single point]
COc1ccc(/C=c2\s/c(=C/C(=O)c3ccc(C)cc3)[nH]c2=O)cc1OC	inconclusive: 10.4 µM [inhibitor, single point]
CCc1nnc(NC(=O)C(=O)NCCOC(=O)c2ccccc2Cl)s1	inconclusive: 0.522 µM [inhibitor, full curve, poor fit]
COc1ccc(NC(=O)c2nn(C34CC5CC(CC(C5)C3)C4)cc2[N+](=O)[O-])cc1	inactive
CCN1C(=S)N[C@@H](CCc2ccccc2)C(C(=O)OC)=C1C	active: 9.28 µM
CN(CC(=O)Nc1ccccc1Cl)C(=O)CSc1nnc(-c2ccco2)o1	inconclusive: 7.38 µM [inhibitor, single point]
CCOC(=O)C1CCN(Cc2ccccn2)CC1	active: 10.4 µM

Some of the entries above in a different format:
COc1ccc(N2C(=NC(=O)C3CCCCC3)SC3CS(=O)(=O)CC32)c(OC)c1 (stereo unspecified)
  Potency: inconclusive: 18.5 µM [inhibitor, single point]
C/C(CC(=O)Nc1ccccc1Br)=N\NC(=O)C(=O)N1CCCC1
  Potency: active: 10.4 µM
COc1cccc(NC(=O)CSc2nc3ccccc3c(=O)n2C)c1
  Potency: inconclusive: 11.7 µM [inhibitor, partial curve]
